Experimental data published in the supplement of paper PMC10849652.
Some of the results follow.

The chains behind the UniProt entries cited, without tags or fusion partners. Where a name states a change or a piece, a line headed by the entry shows the natural chain unless it says otherwise.
UniProt Q13242, whole entry, looked up: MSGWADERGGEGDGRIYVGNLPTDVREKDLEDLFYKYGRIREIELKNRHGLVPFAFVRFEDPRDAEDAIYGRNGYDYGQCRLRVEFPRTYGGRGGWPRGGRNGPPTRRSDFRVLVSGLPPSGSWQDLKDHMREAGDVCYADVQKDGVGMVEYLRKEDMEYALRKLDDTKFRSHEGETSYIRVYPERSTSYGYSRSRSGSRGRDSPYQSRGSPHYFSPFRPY
UniProt Q9BWG4: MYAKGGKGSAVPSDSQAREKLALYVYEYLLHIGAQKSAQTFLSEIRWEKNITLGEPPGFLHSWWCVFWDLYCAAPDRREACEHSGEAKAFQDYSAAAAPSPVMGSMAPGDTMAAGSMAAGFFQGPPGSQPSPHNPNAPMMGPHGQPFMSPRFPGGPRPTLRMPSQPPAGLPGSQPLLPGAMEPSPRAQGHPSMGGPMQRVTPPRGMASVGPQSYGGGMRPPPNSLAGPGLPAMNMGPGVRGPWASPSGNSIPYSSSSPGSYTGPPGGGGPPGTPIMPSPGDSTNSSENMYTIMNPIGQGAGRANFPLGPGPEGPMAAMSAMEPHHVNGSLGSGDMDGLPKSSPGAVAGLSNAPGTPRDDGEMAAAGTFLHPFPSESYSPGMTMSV
UniProt O75494: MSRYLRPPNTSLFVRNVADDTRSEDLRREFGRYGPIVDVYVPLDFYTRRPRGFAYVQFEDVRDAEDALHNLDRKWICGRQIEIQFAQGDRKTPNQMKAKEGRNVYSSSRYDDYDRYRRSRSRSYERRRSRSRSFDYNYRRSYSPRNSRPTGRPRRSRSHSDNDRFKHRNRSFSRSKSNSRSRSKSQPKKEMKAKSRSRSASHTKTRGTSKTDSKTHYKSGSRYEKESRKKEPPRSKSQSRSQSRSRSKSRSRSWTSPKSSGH
UniProt Q8NEF9: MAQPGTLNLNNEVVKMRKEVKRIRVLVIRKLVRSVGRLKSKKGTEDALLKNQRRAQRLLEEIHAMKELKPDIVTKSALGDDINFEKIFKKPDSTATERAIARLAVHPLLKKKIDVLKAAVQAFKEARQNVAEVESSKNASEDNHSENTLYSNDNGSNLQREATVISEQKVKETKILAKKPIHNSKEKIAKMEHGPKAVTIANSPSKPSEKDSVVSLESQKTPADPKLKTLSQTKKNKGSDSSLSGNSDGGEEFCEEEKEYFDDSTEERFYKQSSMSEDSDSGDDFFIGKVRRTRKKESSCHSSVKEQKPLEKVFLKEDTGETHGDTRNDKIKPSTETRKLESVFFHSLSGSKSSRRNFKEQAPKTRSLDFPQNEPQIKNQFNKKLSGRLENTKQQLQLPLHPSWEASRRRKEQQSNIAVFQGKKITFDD
UniProt Q96SB4, whole entry, looked up: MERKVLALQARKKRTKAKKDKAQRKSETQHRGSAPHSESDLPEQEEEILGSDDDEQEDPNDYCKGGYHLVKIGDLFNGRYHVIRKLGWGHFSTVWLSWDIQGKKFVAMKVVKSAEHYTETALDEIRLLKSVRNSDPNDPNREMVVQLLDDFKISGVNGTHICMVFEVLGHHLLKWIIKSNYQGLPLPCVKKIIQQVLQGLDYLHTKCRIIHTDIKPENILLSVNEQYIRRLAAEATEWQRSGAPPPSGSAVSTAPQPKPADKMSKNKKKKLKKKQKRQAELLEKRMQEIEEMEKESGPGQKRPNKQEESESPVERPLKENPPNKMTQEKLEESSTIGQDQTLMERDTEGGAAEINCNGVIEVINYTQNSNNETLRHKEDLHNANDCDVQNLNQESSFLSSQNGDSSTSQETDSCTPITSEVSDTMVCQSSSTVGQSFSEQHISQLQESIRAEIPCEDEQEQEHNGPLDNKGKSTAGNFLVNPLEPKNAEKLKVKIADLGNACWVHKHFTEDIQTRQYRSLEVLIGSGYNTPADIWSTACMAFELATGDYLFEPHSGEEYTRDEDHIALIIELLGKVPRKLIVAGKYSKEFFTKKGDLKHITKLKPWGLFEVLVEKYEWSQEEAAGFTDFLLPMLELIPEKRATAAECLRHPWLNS
UniProt Q9BWW4: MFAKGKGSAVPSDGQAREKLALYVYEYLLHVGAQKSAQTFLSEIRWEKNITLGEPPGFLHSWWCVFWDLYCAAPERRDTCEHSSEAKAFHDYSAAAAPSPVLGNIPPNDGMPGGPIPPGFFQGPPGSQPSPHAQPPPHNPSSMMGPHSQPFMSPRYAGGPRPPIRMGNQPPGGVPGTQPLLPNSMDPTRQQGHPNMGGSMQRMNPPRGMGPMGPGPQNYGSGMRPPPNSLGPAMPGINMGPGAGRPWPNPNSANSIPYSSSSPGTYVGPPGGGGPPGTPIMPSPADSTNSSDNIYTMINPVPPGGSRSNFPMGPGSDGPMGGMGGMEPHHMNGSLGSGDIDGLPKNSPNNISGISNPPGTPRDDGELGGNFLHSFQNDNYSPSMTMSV
UniProt Q9Y657, whole entry, looked up: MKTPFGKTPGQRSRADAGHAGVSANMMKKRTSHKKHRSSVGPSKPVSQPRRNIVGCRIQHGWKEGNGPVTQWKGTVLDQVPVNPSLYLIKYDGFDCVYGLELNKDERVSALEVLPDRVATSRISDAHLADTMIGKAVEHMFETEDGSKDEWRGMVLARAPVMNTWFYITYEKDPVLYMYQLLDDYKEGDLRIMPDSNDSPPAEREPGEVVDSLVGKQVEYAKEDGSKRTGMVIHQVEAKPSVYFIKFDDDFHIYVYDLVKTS
UniProt Q658P3: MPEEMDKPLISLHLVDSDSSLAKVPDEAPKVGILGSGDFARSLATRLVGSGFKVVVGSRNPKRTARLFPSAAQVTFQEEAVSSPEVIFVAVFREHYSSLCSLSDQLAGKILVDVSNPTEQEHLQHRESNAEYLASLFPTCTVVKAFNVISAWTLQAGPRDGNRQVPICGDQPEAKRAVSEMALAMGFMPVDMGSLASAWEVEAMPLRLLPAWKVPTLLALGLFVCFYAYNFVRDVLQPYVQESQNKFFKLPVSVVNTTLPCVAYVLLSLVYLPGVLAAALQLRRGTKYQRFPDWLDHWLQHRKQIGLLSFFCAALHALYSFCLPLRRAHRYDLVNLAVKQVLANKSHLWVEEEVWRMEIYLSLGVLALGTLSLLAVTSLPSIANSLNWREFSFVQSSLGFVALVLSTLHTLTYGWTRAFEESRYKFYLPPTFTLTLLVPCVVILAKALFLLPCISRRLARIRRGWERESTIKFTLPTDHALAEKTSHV
UniProt P42229: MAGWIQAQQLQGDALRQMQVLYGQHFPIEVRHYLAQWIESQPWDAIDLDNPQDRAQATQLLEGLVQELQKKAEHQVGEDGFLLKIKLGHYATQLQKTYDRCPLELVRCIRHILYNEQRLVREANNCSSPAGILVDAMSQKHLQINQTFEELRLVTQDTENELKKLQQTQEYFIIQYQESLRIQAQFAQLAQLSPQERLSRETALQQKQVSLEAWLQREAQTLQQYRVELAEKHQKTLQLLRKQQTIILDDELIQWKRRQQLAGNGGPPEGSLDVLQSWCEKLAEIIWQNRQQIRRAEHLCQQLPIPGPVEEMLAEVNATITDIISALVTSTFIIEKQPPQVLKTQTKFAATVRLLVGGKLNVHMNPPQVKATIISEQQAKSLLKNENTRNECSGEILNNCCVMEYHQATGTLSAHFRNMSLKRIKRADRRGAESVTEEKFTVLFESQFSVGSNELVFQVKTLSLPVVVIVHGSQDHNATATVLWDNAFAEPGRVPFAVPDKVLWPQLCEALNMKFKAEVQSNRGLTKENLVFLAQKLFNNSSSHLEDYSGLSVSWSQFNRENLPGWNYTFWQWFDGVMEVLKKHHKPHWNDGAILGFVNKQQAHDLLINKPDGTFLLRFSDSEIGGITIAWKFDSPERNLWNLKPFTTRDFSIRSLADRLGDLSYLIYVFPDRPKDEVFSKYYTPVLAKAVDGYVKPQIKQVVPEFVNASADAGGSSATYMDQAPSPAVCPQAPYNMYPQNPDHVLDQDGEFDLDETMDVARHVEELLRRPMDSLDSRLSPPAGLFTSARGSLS
UniProt Q9NQZ5: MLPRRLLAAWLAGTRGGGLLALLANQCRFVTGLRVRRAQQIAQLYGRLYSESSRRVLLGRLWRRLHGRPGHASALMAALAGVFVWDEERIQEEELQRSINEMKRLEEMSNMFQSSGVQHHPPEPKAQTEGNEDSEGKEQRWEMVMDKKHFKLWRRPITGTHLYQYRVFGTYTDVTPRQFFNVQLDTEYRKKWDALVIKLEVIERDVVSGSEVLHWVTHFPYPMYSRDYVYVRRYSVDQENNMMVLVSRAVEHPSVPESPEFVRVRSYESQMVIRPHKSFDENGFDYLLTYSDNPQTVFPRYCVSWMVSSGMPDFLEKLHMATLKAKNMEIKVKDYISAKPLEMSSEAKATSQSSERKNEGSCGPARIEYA
UniProt Q11206: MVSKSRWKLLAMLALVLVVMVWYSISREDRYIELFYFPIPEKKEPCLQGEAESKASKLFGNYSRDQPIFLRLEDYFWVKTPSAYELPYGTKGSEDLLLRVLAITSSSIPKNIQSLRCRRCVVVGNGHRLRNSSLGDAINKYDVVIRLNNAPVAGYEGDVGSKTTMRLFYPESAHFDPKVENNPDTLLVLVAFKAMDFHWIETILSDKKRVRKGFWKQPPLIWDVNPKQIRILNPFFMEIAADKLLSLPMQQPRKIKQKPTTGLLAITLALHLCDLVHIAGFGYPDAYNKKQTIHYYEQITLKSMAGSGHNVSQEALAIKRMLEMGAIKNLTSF
UniProt P40763, whole entry, looked up: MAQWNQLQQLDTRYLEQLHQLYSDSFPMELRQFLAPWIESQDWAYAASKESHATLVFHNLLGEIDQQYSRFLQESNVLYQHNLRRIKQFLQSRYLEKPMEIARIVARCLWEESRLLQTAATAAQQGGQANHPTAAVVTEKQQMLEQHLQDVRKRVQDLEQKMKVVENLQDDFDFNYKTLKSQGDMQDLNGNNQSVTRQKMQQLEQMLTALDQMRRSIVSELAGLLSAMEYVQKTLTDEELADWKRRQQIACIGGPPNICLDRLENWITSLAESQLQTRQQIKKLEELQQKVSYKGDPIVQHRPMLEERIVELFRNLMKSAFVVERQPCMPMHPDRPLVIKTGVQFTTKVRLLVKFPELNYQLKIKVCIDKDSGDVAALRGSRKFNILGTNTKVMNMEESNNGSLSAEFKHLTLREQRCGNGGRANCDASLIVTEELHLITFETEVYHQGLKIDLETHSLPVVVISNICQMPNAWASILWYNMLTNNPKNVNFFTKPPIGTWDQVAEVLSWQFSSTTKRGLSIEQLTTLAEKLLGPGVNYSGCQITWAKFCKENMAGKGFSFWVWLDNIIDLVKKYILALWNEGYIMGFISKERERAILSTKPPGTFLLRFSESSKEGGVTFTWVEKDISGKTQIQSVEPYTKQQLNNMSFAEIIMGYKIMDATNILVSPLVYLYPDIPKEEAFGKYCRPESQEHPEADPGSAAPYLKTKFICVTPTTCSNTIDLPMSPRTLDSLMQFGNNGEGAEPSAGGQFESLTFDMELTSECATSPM
UniProt P78362, whole entry, looked up: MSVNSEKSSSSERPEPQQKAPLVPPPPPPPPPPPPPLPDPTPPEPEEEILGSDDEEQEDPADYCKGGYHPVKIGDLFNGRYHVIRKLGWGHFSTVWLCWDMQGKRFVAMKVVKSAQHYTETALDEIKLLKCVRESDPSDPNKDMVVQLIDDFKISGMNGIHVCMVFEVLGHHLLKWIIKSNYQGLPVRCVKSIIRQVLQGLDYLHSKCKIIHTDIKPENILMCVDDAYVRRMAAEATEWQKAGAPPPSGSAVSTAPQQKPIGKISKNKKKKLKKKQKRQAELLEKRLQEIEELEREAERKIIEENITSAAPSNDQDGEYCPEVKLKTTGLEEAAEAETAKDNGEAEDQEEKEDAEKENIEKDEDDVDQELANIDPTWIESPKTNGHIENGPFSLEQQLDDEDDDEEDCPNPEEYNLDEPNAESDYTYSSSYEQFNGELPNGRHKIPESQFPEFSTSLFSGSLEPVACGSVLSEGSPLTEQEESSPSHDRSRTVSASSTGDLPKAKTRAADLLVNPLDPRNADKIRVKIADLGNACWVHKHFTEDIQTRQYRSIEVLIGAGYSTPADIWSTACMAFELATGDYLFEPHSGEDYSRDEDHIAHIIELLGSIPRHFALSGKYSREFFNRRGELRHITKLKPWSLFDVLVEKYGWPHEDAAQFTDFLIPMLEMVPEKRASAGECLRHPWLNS
UniProt Q9UNL2: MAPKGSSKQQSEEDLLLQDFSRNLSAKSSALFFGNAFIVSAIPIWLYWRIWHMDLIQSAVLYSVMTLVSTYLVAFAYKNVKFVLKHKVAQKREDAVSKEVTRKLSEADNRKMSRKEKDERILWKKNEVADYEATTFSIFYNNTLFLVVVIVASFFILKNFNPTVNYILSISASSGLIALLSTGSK
UniProt P81877: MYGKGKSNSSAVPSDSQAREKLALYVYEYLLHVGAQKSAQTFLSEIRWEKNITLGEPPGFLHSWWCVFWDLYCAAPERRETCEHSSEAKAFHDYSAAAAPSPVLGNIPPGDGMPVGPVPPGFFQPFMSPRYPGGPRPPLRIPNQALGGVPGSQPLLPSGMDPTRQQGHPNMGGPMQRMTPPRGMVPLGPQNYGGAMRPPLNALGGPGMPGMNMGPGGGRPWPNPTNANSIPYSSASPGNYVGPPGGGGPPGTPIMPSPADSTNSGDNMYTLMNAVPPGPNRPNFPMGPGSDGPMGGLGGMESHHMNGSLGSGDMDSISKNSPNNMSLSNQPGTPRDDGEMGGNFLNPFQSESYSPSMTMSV

Assays:
Assay in all cases: log2 fold change, soluble protein after heating vs DMSO (PISA); higher = thermal stabilisation; K562 cells, 10 uM, 30 min; active = over 0.2 and 3.5 SD of the protein, either way, in both replicates (recomputed)
[1] = compound: NC(=O)Nc1cc(-c2cccc(F)c2)sc1C(=O)N[C@H]1CCCNC1
Method in brief: (§1)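 K562 cells at 2×10^6 cells/mL were treated for 30 min with 10 μM compound, and aliquots were heated for 3 min over 48°C-58°C before pooling. Extraction used PBS with 0.5% NP-40 at 4°C, and soluble protein was the supernatant after 21,000xg for 90 min, measured by TMTpro 16plex LC-MS/MS with channel sums equalised. Thermal stability values, relative to control samples and from duplicates, are log2 fold changes.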

[2] = compound: NC(=O)c1cnc(N[C@@H]2CCCC[C@@H]2N)nc1Nc1cccc(-n2nccn2)c1
Method in brief: as §1

[3] = compound: NC1(c2ccc(-c3nc4ccn5c(=O)[nH]nc5c4cc3-c3ccccc3)cc2)CCC1
Method in brief: as §1

[4] = compound: NCC(=O)Nc1ccc(-n2nc(C(F)(F)F)cc2-c2ccc3c(ccc4ccccc43)c2)cc1
Method in brief: as §1

entinostat = compound: Nc1ccccc1NC(=O)c1ccc(CNC(=O)OCc2cccnc2)cc1 [entinostat]
Method in brief: as §1

vorinostat = compound: O=C(CCCCCCC(=O)Nc1ccccc1)NO [vorinostat]
Method in brief: as §1

citarinostat = compound: O=C(CCCCCCNC(=O)c1cnc(N(c2ccccc2)c2ccccc2Cl)nc1)NO [citarinostat]
Method in brief: as §1

silmitasertib = compound: O=C(O)c1ccc2c(c1)nc(Nc1cccc(Cl)c1)c1ccncc12 [silmitasertib]
Method in brief: as §1

[5] = compound: O=C1NC(=O)C(c2cnc3ccccn23)=C1c1cn2c3c(cc(F)cc13)CN(C(=O)N1CCCCC1)CC2
Method in brief: as §1

[6] = compound: c1cc(OCCN2CCCCC2)cc(-c2n[nH]c3ccc(-c4nnc[nH]4)cc23)c1
Method in brief: as §1

| Target | log2 fold change [1] | log2 fold change [2] | log2 fold change [3] | log2 fold change [4] | log2 fold change (entinostat) | log2 fold change (vorinostat) | log2 fold change (citarinostat) | log2 fold change (silmitasertib) | log2 fold change [5] | log2 fold change [6] |
| --- | --- | --- | --- | --- | --- | --- | --- | --- | --- | --- |
| SRSF9 (UniProt Q13242) | inactive: 0.079 | inactive: 0.17 | inactive: 0.398 | inactive: 0.171 | inactive: -0.072 | inactive: 0.029 | inactive: -0.114 | inactive: 0.195 | inactive: 0.245 | inactive: -0.237 |
| SPATA33 isoform 2 (UniProt Q96N06) | inactive: 0.144 | inactive: -0.07 |  | inactive: 0.021 | inactive: -0.051 | inactive: -0.029 | inactive: 0.004 |  |  | inactive: -0.073 |
| SPARC (UniProt P09486) | inactive: -0.124 | inactive: -0.143 | inactive: -0.042 | inactive: 0.075 | inactive: -0.131 | inactive: 0.05 | inactive: -0.013 | inactive: 0.076 | inactive: 0.027 | inactive: 0 |
| SSU72 (UniProt Q9NP77) | inactive: 0.003 | inactive: -0.05 | inactive: 0.182 | inactive: -0.032 | inactive: 0.061 | inactive: 0.094 |  | inactive: -0.389 | inactive: -0.035 |  |
| SSBP4 (UniProt Q9BWG4) | inactive: 0.177 | inactive: 0.041 | inactive: -0.024 |  | inactive: -0.084 | inactive: -0.107 | inactive: 0.018 | inactive: -0.008 |  | inactive: -0.093 |
| STK25 (UniProt O00506) | inactive: -0.029 | inactive: -0.06 | inactive: -0.136 | inactive: -0.08 | inactive: -0.016 | inactive: 0.042 | inactive: -0.026 | inactive: 0.078 | inactive: -0.064 | inactive: -0.034 |
| SPPL2B (UniProt Q8TCT7) | inactive: 0.06 | inactive: 0.009 | inactive: -0.031 | inactive: -0.016 | inactive: -0.052 | inactive: -0.013 | inactive: 0.05 | inactive: -0.037 | inactive: 0.029 | inactive: -0.025 |
| ST7 (UniProt Q9NRC1) | inactive: 0.016 | inactive: 0.054 | inactive: -0.031 | inactive: -0.032 | inactive: -0.019 | inactive: 0.029 | inactive: -0.024 | inactive: 0.018 | inactive: 0.045 | inactive: -0.134 |
| SRGAP2 (UniProt O75044) | inactive: 0.038 | inactive: -0.028 | inactive: -0.006 | inactive: -0.026 | inactive: 0.049 | inactive: -0.043 | inactive: 0.013 | inactive: 0.051 | inactive: 0.02 | inactive: -0.034 |
| SRSF10 (UniProt O75494) | inactive: 0.059 | inactive: -0.096 | inactive: 0.444 | inactive: 0.063 | inactive: -0.047 | inactive: 0.048 | inactive: -0.153 | inactive: 0.103 | inactive: 0.304 | inactive: -0.152 |
| SRFBP1 (UniProt Q8NEF9) | inactive: 0.038 | inactive: 0.198 | inactive: 0.211 |  | inactive: -0.071 | inactive: 0.009 | inactive: 0 | inactive: 0.054 | inactive: 0.122 | inactive: 0.116 |
| SRPK1 (UniProt Q96SB4) | inactive: 0.256 | inactive: 0.068 | inactive: 0.199 | inactive: 0.127 | inactive: -0.012 | inactive: -0.026 | inactive: -0.119 | inactive: 0.131 | inactive: 0.258 | inactive: -0.266 |
| SSBP3 (UniProt Q9BWW4) | inactive: 0.022 | inactive: 0.109 | inactive: 0.02 | inactive: -0.002 | inactive: 0.052 | inactive: -0.168 | inactive: 0 | inactive: 0.015 | inactive: -0.049 | inactive: -0.031 |
| SPP2 (UniProt Q13103) | inactive: 0.005 | inactive: 0.247 |  | inactive: 0.005 | inactive: -0.096 |  |  |  | inactive: 0.115 |  |
| ST6GAL1 (UniProt P15907) | inactive: -0.101 | inactive: 0.089 | inactive: -0.079 | inactive: -0.004 | inactive: -0.106 | inactive: -0.045 | inactive: 0.025 | inactive: 0.024 | inactive: 0.017 | inactive: -0.064 |
| SPIN1 (UniProt Q9Y657) | inactive: -0.097 | inactive: -0.031 | inactive: 0 | inactive: -0.05 | inactive: -0.173 | inactive: -0.12 | inactive: -0.126 | inactive: 0.055 | inactive: -0.047 | inactive: 0.03 |

As a working copy, some entries already given:

| Target | log2 fold change [1] | log2 fold change [2] | log2 fold change [3] | log2 fold change [4] | log2 fold change (entinostat) | log2 fold change (vorinostat) | log2 fold change (citarinostat) | log2 fold change (silmitasertib) | log2 fold change [5] | log2 fold change [6] |
| --- | --- | --- | --- | --- | --- | --- | --- | --- | --- | --- |
| SPP2 (UniProt Q13103) | inactive: 0.005 | inactive: 0.247 |  | inactive: 0.005 | inactive: -0.096 |  |  |  | inactive: 0.115 |  |
| ST6GAL1 (UniProt P15907) | inactive: -0.101 | inactive: 0.089 | inactive: -0.079 | inactive: -0.004 | inactive: -0.106 | inactive: -0.045 | inactive: 0.025 | inactive: 0.024 | inactive: 0.017 | inactive: -0.064 |

Further entries

| Target | log2 fold change [1] | log2 fold change [2] | log2 fold change [3] | log2 fold change [4] | log2 fold change (entinostat) | log2 fold change (vorinostat) | log2 fold change (citarinostat) | log2 fold change (silmitasertib) | log2 fold change [5] | log2 fold change [6] |
| --- | --- | --- | --- | --- | --- | --- | --- | --- | --- | --- |
| SRC isoform 2 (UniProt P12931) | active: -0.578 | inactive: 0.006 | inactive: 0.049 | inactive: -0.088 | inactive: 0.12 | inactive: 0.079 | inactive: -0.104 | inactive: 0.122 | inactive: 0.093 | inactive: 0.199 |
| STARD3 (UniProt Q14849) | inactive: 0.014 | inactive: 0.079 | inactive: -0.236 | inactive: -0.073 | inactive: 0.004 | inactive: -0.021 |  | inactive: 0.053 | inactive: -0.003 |  |
| STEAP3 isoform 2 (UniProt Q658P3) | inactive: -0.13 | inactive: 0.076 | inactive: -0.042 | inactive: -0.006 | inactive: 0.008 | inactive: 0.086 | inactive: 0.013 | inactive: 0 | inactive: -0.028 | inactive: -0.082 |
| STAT5A (UniProt P42229) | inactive: -0.115 | inactive: -0.112 | inactive: -0.112 | inactive: -0.115 | inactive: 0.112 | inactive: 0.061 | inactive: 0.194 | inactive: 0.037 | inactive: -0.029 | inactive: 0.061 |
| STARD7 (UniProt Q9NQZ5) | inactive: -0.048 | inactive: -0.113 | inactive: -0.088 | inactive: 0.012 | inactive: 0.008 | inactive: 0.114 | inactive: 0.073 | inactive: -0.011 | active: 0.341 | inactive: -0.089 |
| SRSF5 (UniProt Q13243) | inactive: -0.048 | inactive: 0.31 | inactive: 0.309 | inactive: 0.032 | inactive: -0.078 | inactive: -0.036 | inactive: -0.056 | inactive: 0.031 | inactive: 0.154 | inactive: -0.21 |
| ST3GAL4 isoform 4 (UniProt Q11206) | inactive: -0.045 | inactive: -0.064 |  |  | inactive: -0.098 |  |  |  | inactive: 0.129 |  |
| STAT3 (UniProt P40763) | inactive: -0.001 | inactive: -0.047 | inactive: -0.2 | inactive: -0.092 | inactive: 0.089 | inactive: 0.101 | inactive: 0.062 | inactive: 0.103 | inactive: -0.036 | inactive: -0.016 |
| STIM1 (UniProt Q13586) | inactive: -0.032 | inactive: -0.074 | inactive: -0.075 | inactive: -0.117 | inactive: 0.011 | inactive: 0.022 | inactive: -0.013 | inactive: 0.007 | inactive: -0.054 | inactive: -0.04 |
| SRPK2 isoform 2 (UniProt P78362) | inactive: 0.107 | inactive: 0.156 | inactive: 0.205 | inactive: 0.143 | inactive: -0.049 | inactive: 0.025 | inactive: -0.221 | inactive: 0.134 | inactive: 0.207 | inactive: -0.107 |
| SRSF6 (UniProt Q13247) | inactive: -0.06 | inactive: 0.038 | inactive: 0.191 | inactive: 0.032 | inactive: -0.082 | inactive: 0.084 | inactive: -0.068 | inactive: -0.254 | inactive: 0.108 | inactive: -0.299 |
| SSR3 isoform 2 (UniProt Q9UNL2) | inactive: -0.056 | inactive: 0.18 | inactive: -0.056 | active: 0.369 | inactive: -0.04 | inactive: 0 | inactive: 0.068 | inactive: 0 | inactive: -0.028 | inactive: -0.114 |
| SPATA5 (UniProt Q8NB90) | inactive: 0.02 | inactive: 0.008 | inactive: 0.033 | inactive: 0.028 | inactive: -0.035 | inactive: -0.013 | inactive: -0.022 | inactive: 0.007 | inactive: 0.015 | inactive: -0.034 |
| SPATS2L isoform 3 (UniProt Q9NUQ6) | inactive: -0.061 | inactive: 0.091 |  |  | inactive: -0.05 |  |  |  | inactive: 0.196 |  |
| SSBP2 (UniProt P81877) |  |  | inactive: 0.045 |  |  | inactive: -0.162 | inactive: -0.045 | inactive: -0.172 | inactive: -0.126 | inactive: 0.086 |
| SSB (UniProt E7ERC4) |  |  | inactive: -0.168 | inactive: -0.065 |  | inactive: -0.176 |  | inactive: 0.022 |  |  |
